Three molecules from patent publication WO2017192589A1 can be followed below.

Assay [1] deals with hemagglutinin (HA) of A/Hong Kong/1-4-MA21-1/1968 (H3N2), HA0 (influenza A virus A/Hong Kong/1-4-MA21-1/1968 (H3N2)). Description: X-ray co-crystal structure.
The target is the same in assay [2]. Description: negative stain EM.

No constants are given. Whether binding was seen depends on the method and setting. Binding calls can cover weak binding; strength is not graded here.

B1: 16.a.26 Fab (Fab, V domains shown)
VH: QVQLVQSGPEVKKPGASVKVSCKASGYSFSRYGISWVRQAPGQGLEWLGWISGYTGNTNYAQKFQGRVTMTTDTSTSTASMELRSLRSDDTAVYYCARDKKQGEVVLPAASFRWFAPWGQGTLVTVSS
VL: DIQMTQSPVSLSASVGDRVTITCRASQSIGKFLNWYQQKPGRAPKLLIYYASNLETGGPSRFSGRGSETEFSLTISSLQPEDFATYYCQQSNNVPHTFGQGTKLEIK
As to B1, the binding entry in assay [1] is listed as “binds”.

B2: 31.a.83 Fab (Fab, V domains shown)
VH: EVQLLESGGGLVQPGESLRVSCAASGFTFRDSALSWVRQAPGKGLEWVSAISGNGGATYYADTVKGRFTISRDNSQTTLYLQMNSLRADDTATYYCAKDESPPIYNLMPGYYSTYYYMDVWGKGTTVTVSS
VL: EIVMTPGPVTLSVSPGETATLSCRASQSVRSNLAWYQQKPGQAPRLLIYGASTRATDIPARFSGSGSGTEFTLSISSLQSDDFAVYYCQQYNHWLRTFGQGTKLEIK
In the case of B2, the binding result in assay [1] was “binds”.

B3: 56.a.09 Fab (Fab, V domains shown)
VH: QVQLQQSGPGLVKPSQTLSLTCVISGDTVSSNRAAWNWIRQSPSRGLEWLGRTYYRSKWYTDYAVSVKSRITITPDTSKNQFSLQMKSVTPEDTAVYYCARGSAMIFGIVIILESWGQGTLVTVSS
VL: LRDRRVDTVSLSLSPGERATLSCRASQSVASSYLAWYQQKPGQAPRLLIYGASSRATGVPDRFSGSGSGTDFILTISRLEPEDFAVYYCQQYDGSQYTFGQGTKLEIK
B3: the binding result in assay [2] and in assay [1] was “binds” in each case.
